# Results deposited as PubChem BioAssay AID504774 (Drosophila RNAi Screening Center, 2011).
# Purpose: 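Knock-downs that shift viability of MMS-exposed cells relative to untreated ones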 (primary screen)
# Cells: Drosophila Kc167 cells
# Reagents: long dsRNA against Drosophila genes, about 0.25 µg dsRNA per well
# Duration: about 6 days: 3 days knock-down, then 3 days with or without MMS
# Challenge: methyl methanesulphonate 0.004% (w/v) for 3 days after knock-down
# Measurement: 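Viability in wells given MMS, read as ATP luminescence, normalised by quantiles plate by plate and averaged across replicates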
# Reading the numbers: mean viability with MMS: higher = more surviving cells after MMS
# In all, the deposit lists about 23,000 reagents; this is an unselected part of those with a known target gene and a result. 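Values are quantile-normalised luminescence on an arbitrary scale; higher means more cells surviving MMS.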 Names joined by + are all predicted targets of the reagent. Further read-outs or replicates are left out here. Reagent sequences are not shown.
gene,DRSC id,mean viability with MMS
abo,DRSC02926,3.60e6
Spn43Aa,DRSC06117,3.71e6
Cyp310a1,DRSC03301,3.62e6
Camp,DRSC07004,3.73e6
CG1806,DRSC19787,3.39e6
CG11286,DRSC14293,3.56e6
Mur89F,DRSC15544,3.46e6
mEFTs,DRSC02953,3.51e6
CG30082,DRSC22945,3.56e6
Hpr1,DRSC12296,3.42e6
bbx + waw,DRSC20575,3.49e6
bbx + waw,DRSC20589,3.51e6
Grl43a,DRSC06383,3.46e6
CG7333,DRSC16229,3.76e6
JIL-1,DRSC11200,3.84e6
mthl1,DRSC19905,3.55e6
CG15203,DRSC19650,3.69e6
Kap3,DRSC19426,3.46e6
hng3,DRSC08367,3.51e6
Ns1,DRSC15529,3.47e6
BubR1,DRSC04838,3.32e6
alphaTry,DRSC07577,3.82e6
Tcs4,DRSC19587,3.60e6
CG4511,DRSC15589,3.48e6
Or22c,DRSC00766,3.43e6
PCID2,DRSC10822,3.44e6
wwk,DRSC01941,3.63e6
CG9822,DRSC04568,3.45e6

Laid out differently: results already given.
{"gene":"alphaTry","DRSC id":"DRSC07577","mean viability with MMS":3.82e6}
{"gene":"Tcs4","DRSC id":"DRSC19587","mean viability with MMS":3.60e6}
{"gene":"CG4511","DRSC id":"DRSC15589","mean viability with MMS":3.48e6}
{"gene":"Or22c","DRSC id":"DRSC00766","mean viability with MMS":3.43e6}
